Patent US3940248A, “Method for inhibiting corrosion of metal” (Otsuka Kagaku Yakuhin Kabushiki Kaisha, priority 1972, dated 1976)

Assays:
[1] = Corrosion test, cast iron test pieces immersed in water with corrosive ions (Table 1); settings: 500 p.p.m. inhibitor, 50 °C, 10 days, pH 7, 50 p.p.m. each Cl-, SO4--, HCO3-
[2] = Corrosion test, steel test pieces immersed in water with corrosive ions (Table 1); settings: 100 p.p.m. inhibitor, 50 °C, 10 days, pH 7, 50 p.p.m. each Cl-, SO4--, HCO3-

Row | SMILES | Reduction of weight by corrosion [1] [mg/cm^2] | Reduction of weight by corrosion [2] [mg/cm^2]
1 | Oc1cc(Cc2ccccc2)nn2cnnc12 [compound 4] | 0.23 | 
2 | CCCCCCCCCCc1nn2cnnc2c(O)c1CCC [compound 2] |  | 0.11
3 | CCCCCCc1cc(O)c2nncn2n1 [compound 3] | 0.15 | 
4 | Cc1cc(O)c2nncn2n1 [compound 1] |  | 0.07
